We go through 18 molecules from US20180244787A1 (Sanofi, published 2018).

For the test, the target named is T1, recombinant human CXCR3 (human, UniProt P49682 1-368, limits assumed).
T1 construct: also called C-X-C motif chemokine receptor 3
T1 sequence (looked up): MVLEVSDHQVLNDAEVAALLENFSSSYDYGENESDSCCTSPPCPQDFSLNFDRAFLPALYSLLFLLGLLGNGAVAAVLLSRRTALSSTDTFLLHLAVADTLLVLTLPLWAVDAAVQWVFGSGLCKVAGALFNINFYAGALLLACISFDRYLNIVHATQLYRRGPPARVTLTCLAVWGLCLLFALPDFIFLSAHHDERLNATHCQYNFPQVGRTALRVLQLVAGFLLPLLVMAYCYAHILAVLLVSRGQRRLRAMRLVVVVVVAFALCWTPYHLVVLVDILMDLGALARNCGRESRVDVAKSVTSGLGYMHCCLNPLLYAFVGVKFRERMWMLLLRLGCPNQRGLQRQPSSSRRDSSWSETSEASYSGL
The test can be described thus: Biacore, recombinant human CXCR3.

Residue numbers refer to the chain shown, from its start. Names may count otherwise. Results are given in words; binding and its absence hold for the method and conditions named. Some results given as binding are weak or reduced against the parent protein; the word gives no strength.

B1: 53Hu37 CDR variant VH S103V / VL N30R/S92R (antibody, V domains shown)
VH: EVQLLESGGGLVQPGGSLRLSCAASGFTFTSYAMSWVRQAPGKGLEWVATISHGGTYTYYPDSVKGRFTISRDNAKNTLYLQMNSLRAEDTAVYYCARHPIYVGNYQGYFDYWGQGTLVTVSS
VL: DIQLTQSPSFLSASVGDRVTITCRASSGVRYLYWYQQKPGKAPKLWIYFTSTLASGVPSRFSGSGSGNEYTLTISSLQPEDFATYYCQQFTRSPYTFGQGTKLEIK
With B1, the binding entry is given as “binds”.

B2: 53Hu37 CDR variant VH G54K/T56K/N105F / VL 53Hu37 (antibody, V domains shown)
VH: B1 VH with G54K, T56K, V103S, N105F
VL: B1 VL with R30N, R92S
On to B2, for which the binding result is “binds”.

B3: 53Hu37 CDR variant VH Y102H / VL S92R (antibody, V domains shown)
VH: B1 VH with Y102H, V103S
VL: B1 VL with R30N
As to B3, the binding result is “binds”.

B4: 53Hu37 CDR variant VH T56R/N105F / VL S92R (antibody, V domains shown)
VH: B1 VH with T56R, V103S, N105F
VL: B1 VL with R30N
With B4, the binding entry was “binds”.

B5: 53Hu37 CDR variant VH G54R/T56R/N105F / VL T91R (antibody, V domains shown)
VH: B1 VH with G54R, T56R, V103S, N105F
VL: B1 VL with R30N, T91R, R92S
In the case of B5, the binding entry was “binds”.

B6: 53Hu37 CDR variant VH S103W / VL N30R/S92R (antibody, V domains shown)
VH: B1 VH with V103W
VL: B1 VL
For B6, the binding entry is listed as “binds”.

B7: 53Hu37 CDR variant VH T56K/N105W / VL S92R (antibody, V domains shown)
VH: B1 VH with T56K, V103S, N105W
VL: B1 VL with R30N
In the case of B7, the binding entry was “binds”.

B8: 53Hu37 CDR variant VH G54R/N105F / VL N30R/S92R (antibody, V domains shown)
VH: B1 VH with G54R, V103S, N105F
VL: B1 VL
As to B8, the binding result was “binds”.

B9: 53Hu37 CDR variant VH G54R/T56R/N105F / VL N30R/S92R (antibody, V domains shown)
VH: B1 VH with G54R, T56R, V103S, N105F
VL: B1 VL
With B9, the binding entry is listed as “binds”.

B10: 53Hu37 CDR variant VH G54R/N105F / VL 53Hu37 (antibody, V domains shown)
VH: B1 VH with G54R, V103S, N105F
VL: B1 VL with R30N, R92S
Regarding B10, the binding entry is “binds”.

B11: 53Hu37 CDR variant VH G54K/T56K/N105F / VL S92R (antibody, V domains shown)
VH: B1 VH with G54K, T56K, V103S, N105F
VL: B1 VL with R30N
Take B11: the binding entry is given as “binds”.

B12: 53Hu37 CDR variant VH T56R/N105F / VL 53Hu37 (antibody, V domains shown)
VH: B1 VH with T56R, V103S, N105F
VL: B1 VL with R30N, R92S
For B12, the binding entry is reported as “binds”.

B13: 53Hu37 CDR variant VH T56R/N105F / VL N30R/S92R (antibody, V domains shown)
VH: B1 VH with T56R, V103S, N105F
VL: B1 VL
On to B13, for which the binding result was “binds”.

B14: 53Hu37 CDR variant VH G54K/N105F / VL 53Hu37 (antibody, V domains shown)
VH: B1 VH with G54K, V103S, N105F
VL: B1 VL with R30N, R92S
Regarding B14, the binding entry is on record as “binds”.

B15: 53Hu37 CDR variant VH S103Y / VL N30R/S92R (antibody, V domains shown)
VH: B1 VH with V103Y
VL: B1 VL
As to B15, the binding entry was “binds”.

B16: 53Hu37 CDR variant VH G54R/T56R/N105F / VL 53Hu37 (antibody, V domains shown)
VH: B1 VH with G54R, T56R, V103S, N105F
VL: B1 VL with R30N, R92S
As to B16, the binding result is recorded as “binds”.

B17: 53Hu37 CDR variant VH G54R/N105W / VL 53Hu37 (antibody, V domains shown)
VH: B1 VH with G54R, V103S, N105W
VL: B1 VL with R30N, R92S
Regarding B17, the binding result is on record as “binds”.

B18: 53Hu37 CDR variant VH H53R/N105Q / VL 53Hu37 (antibody, V domains shown)
VH: B1 VH with H53R, V103S, N105Q
VL: B1 VL with R30N, R92S
Turning to B18, the binding entry was “binds”.
